Results: patent US8658698B2, “Insecticidal compounds” (Syngenta Crop Protection, LLC, priority 2008, dated 2014)
Some results were stated once for a whole list of compounds, not compound by compound.

Legend:
Assay type in all cases: in vivo
[1] = system: Heliothis virescens (Tobacco Budworm); assay: Heliothis virescens egg test on artificial diet; settings: 200 ppm (concentration in well 18 ppm), eggs 0-24 h old on artificial diet, 4 days; egg mortality, larval mortality, growth regulation
[2] = system: Diabrotica balteata (Corn Root Worm); assay: Diabrotica balteata larvae test on artificial diet; settings: 200 ppm (concentration in well 18 ppm), L2 larvae, 5 days, larval mortality, growth regulation
[3] = system: Spodoptera littoralis (Egyptian Cotton Leafworm); assay: Spodoptera littoralis cotton leaf disc spray test; settings: 200 ppm sprayed on cotton leaf discs, L1 larvae, mortality, feeding behavior, growth regulation 3 DAT
Method: (§1) This Example illustrates the pesticidal/insecticidal properties of compounds of formula (I). The tests were performed as follows:
Spodoptera littoralis (Egyptian Cotton Leafworm)
(§2) Cotton leaf discs were placed on agar in a 24-well microtiter plate and sprayed with test solutions at an application rate of 200 ppm. After drying, the leaf discs were infested with 5 L1 larvae. The samples were checked for mortality, feeding behavior, and growth regulation 3 days after treatment (DAT). The following compounds gave at least 80% control of Spodoptera littoralis: A2, A6, A8, A9, A10, A11, A13, A15, A19, A20, A22, A25, A27, A29, A31, A33, A35, A41, A50, A55, A60, A65, A73, A88, A92, and A94. Heliothis virescens (Tobacco Budworm): Eggs (0-24 h old) were placed in 24-well microtiter plate on artificial diet and treated with test solutions at an application rate of 200 ppm (concentration in well 18 ppm) by pipetting. After an incubation period of 4 days, samples were checked for egg mortality, larval mortality and growth regulation. The following compounds gave at least 80% control of Heliothis virescens: A2, A3, A4, A5, A6, A7, A9, A10, A11, A13, A15, A19, A20, A22, A25, A26, A27, A28, A29, A31, A32, A33, A35, A38, A40, A41, A43, A46, A55, A59, A60, A65, A69, A70, A71, A73, A74, A75, A77, A79, A80, A82, A86, A88, A89, A90, A92, A94, A96, A98, and A100. Plutella xylostella (Diamond Back Moth): A 24-well microtiter plate (MTP) with artificial diet was treated with test solutions at an application rate of 200 ppm (concentration in well 18 ppm) by pipetting. After drying, the MTP's were infested with L2 larvae (7-12 per well). After an incubation period of 6 days, samples were checked for larval mortality and growth regulation. The following compounds gave at least 80% control of Plutella xylostella: A3, A4, A5, A6, A7, A8, A10, A15, A16, A18, A19, A20, A22, A25, A26, A27, A28, A29, A31, A32, A33, A35, A38, A40, A55, A69, A71, A73, A74, A75, A76, A77, A78, A80, A82, A86, A87, A88, A89, A92, A94, A96, A97, A98, and A99. Diabrotica balteata (Corn Root Worm): A 24-well microtiter plate (MTP) with artificial diet was treated with test solutions at an application rate of 200 ppm (concentration in well 18 ppm) by pipetting. After drying, the MTP's were infested with larvae (L2) (6-10 per well). After an incubation period of 5 days, samples were checked for larval mortality, and growth regulation. The following compounds gave at least 80% control of Diabrotica balteata: A5, A6, A7, A14, A15, A18, A24, A35, A53, A55, A70, A71, A75, A79, A84, A85, A88, A92, A93, A95, A96, A97, A98, A99, A100, A101, A102, A103, and A104. Myzus persicae (Green Peach Aphid): Each well of a 24-well microtiter plate is filled with 0.6 ml 30% sucrose solution, containing 12.5 ppm of the test compounds. The wells are covered with streched parafilm and infested with a mixed population of Myzus persicae. After an incubation period of 6 days, samples are checked for mortality (feeding activity). The following compounds gave at least 80% control of Myzus persicae: A4, A6, A10, A11, A15, A19, A20, A24, A27, A29, A33, A34, A36, A37, A39, A40, A41, A42, A43, A44, A45, A46, A47, A48, A49, A55, A60, and A82. Tetranychus urticae (Two-Spotted Spider Mite): Bean leaf discs on agar in 24-well microtiter plates were sprayed with test solutions at an application rate of 200 ppm. After drying, the leaf discs are infested with mite populations of mixed ages. 8 days later, discs are checked for egg mortality, larval mortality, and adult mortality. The following compounds gave at least 80% control of Tetranychus urticae: A6, A11, A15, A19, A20, A22, A26, A35, A58, and A64.

[4] = system: Myzus persicae (Green Peach Aphid); assay: Myzus persicae sucrose solution feeding test; settings: 12.5 ppm in 30% sucrose solution, mixed population, 6 days; mortality (feeding activity)
Method: as §1, §2

[5] = system: Tetranychus urticae (Two-Spotted Spider Mite); assay: Tetranychus urticae bean leaf disc spray test; settings: 200 ppm sprayed on bean leaf discs, mite populations of mixed ages, 8 days; egg, larval, adult mortality
Method: as §1, §2

[6] = system: Plutella xylostella (Diamond Back Moth); assay: Plutella xylostella larvae test on artificial diet; settings: 200 ppm (concentration in well 18 ppm), L2 larvae, 6 days, larval mortality, growth regulation

CCc1cc(C(F)(C(F)(F)F)C(F)(F)C(F)(F)F)cc(C)c1NC(=O)c1ccc(C(=O)NCc2ccc(S(C)(=O)=O)cc2)c(C)c1 (stereo not drawn) [A15]
at least 80%: control of Heliothis virescens [1] | control of Diabrotica balteata [2] | control of Spodoptera littoralis [3] | control of Myzus persicae [4] | control of Tetranychus urticae [5] | control of Plutella xylostella [6]
